Reference: publication PMC4846832, “Discovery of new MD2 inhibitor from chalcone derivatives with anti-inflammatory effects in LPS-induced acute lung injury” (Scientific Reports, 2016)
These are yes or no findings as the source states them, for the method shown. In cells and extracts the contact can be indirect. Some binding calls cover weakened binding; strength is not graded here.

Amino acid sequences for entries named in this document (tags omitted). Residues count along the entry.
UniProt Q9QUK6, residues 26-835: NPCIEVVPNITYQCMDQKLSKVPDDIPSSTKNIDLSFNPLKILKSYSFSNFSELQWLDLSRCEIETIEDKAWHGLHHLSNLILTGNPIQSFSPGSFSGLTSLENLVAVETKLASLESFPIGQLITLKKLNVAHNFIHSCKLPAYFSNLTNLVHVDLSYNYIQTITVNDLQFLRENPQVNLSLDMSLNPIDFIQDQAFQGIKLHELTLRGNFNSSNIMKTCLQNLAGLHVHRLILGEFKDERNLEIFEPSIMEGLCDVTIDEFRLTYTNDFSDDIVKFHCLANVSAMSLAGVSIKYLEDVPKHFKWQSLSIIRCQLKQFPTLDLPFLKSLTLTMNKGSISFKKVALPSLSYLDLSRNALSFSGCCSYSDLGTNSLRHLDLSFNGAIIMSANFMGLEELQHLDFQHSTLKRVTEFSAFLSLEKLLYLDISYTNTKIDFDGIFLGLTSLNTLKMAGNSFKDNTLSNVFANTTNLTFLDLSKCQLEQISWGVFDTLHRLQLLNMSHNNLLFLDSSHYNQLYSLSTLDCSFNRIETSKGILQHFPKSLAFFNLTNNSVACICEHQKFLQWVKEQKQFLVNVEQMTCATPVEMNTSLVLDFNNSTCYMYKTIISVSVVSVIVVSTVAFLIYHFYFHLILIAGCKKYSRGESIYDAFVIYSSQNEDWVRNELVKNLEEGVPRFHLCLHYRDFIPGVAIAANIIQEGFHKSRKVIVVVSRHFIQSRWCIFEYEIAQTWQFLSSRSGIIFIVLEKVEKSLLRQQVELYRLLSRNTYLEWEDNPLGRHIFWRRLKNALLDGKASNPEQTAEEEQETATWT

Biological target: T1, Myeloid differentiation protein 2 (MD2), mouse, endogenous in peritoneal macrophages (mouse (endogenous in MPMs)) (UniProt Q9JHF9)
T1 sequence: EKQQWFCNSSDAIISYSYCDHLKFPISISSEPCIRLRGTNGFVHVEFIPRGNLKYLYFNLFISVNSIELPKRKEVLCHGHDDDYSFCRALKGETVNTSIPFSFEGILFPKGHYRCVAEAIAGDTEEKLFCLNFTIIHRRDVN
Test: co-IP; MPM lysate (400 ug protein) precipitated with MD2 antibody and protein A + G agarose, 4 °C overnight, Western blot; cells treated with vehicle, LPS (0.5 ug/mL, 5 min) or LPS after 10 uM compound 20

**Q.** With “Toll-like receptor 4 (TLR4), mouse, endogenous in peritoneal macrophages (from UniProt Q9QUK6 26-835)” as the substance, how does the binding read?
**A.** binds
